Data as given in PubChem BioAssay AID1224828 (NIAID, 2016)
The whole screen tested about 17,000 reagents; below is an unselected part. 762 of them (4.5%) were called active. 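Active calls include both raised and lowered p65 entry, mostly lowered; wells with fewer than 50 cells lack a z-score.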 Raw values vary from plate to plate and are shown uncorrected. The numbers tell different reagents against one gene apart. No sequences are given here.

Screen: 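Regulators linking TLR4 signalling to p65 nuclear translocation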 (primary screen)
Cells: mouse RAW264.7 G9 macrophage reporter cells (GFP-p65, Tnf promoter-mCherry)
Knock-down reagent: siRNA pool against mouse genes, 100 nM
Duration: 2 days siRNA transfection, then 40 min LPS before fixation
Treatment: LPS (Salmonella minnesota R595) at 10 ng/ml
Detection: 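Microscopy ratio of nuclear to perinuclear-ring GFP-p65 signal, scaled to the plate median; gene score is the average of two replicate robust z-scores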
Scale: p65 translocation robust z-score: higher = more nuclear NF-kappaB p65 after LPS than the plate median; nuclear/cytoplasmic p65 ratio: higher = more nuclear NF-kappaB p65
Active means: 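Active if robust z is above 3.3 (negative regulators) or below -1.56, the Tlr4 control median (positive regulators); activity score 50 or more; control wells not called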
Calls: active = hit (p65 shift raised or lowered); inactive = no clear change

| Target gene | reagent | p65 translocation robust z-score | nuclear/cytoplasmic p65 ratio, rep 1 | nuclear/cytoplasmic p65 ratio, rep 2 | low cell count flag | outcome |
| --- | --- | --- | --- | --- | --- | --- |
| Sbds | 1 | -0.83 | 1.49 | 1.32 | enough cells to score | inactive |
| Colgalt1 | 1 | 1.29 | 1.58 | 1.62 | enough cells to score | inactive |
| Mrtfb | 1 | -2.74 | 1.27 | 1.11 | enough cells to score | active |
| Mrtfb | 2 | 0.3 | 1.5 | 1.37 | enough cells to score | inactive |
| Rmc1 | 1 | -0.72 | 1.46 | 1.55 | enough cells to score | inactive |
| Adgre4 | 1 | -0.01 | 1.5 | 1.63 | enough cells to score | inactive |
| Or52ac1 | 1 | 0.15 | 1.44 | 1.3 | enough cells to score | inactive |
| Aanat | 1 | -1.23 | 1.17 | 1.41 | enough cells to score | inactive |
| Zfp566 | 1 | 0.66 | 1.42 | 1.62 | enough cells to score | inactive |
| Crygc | 1 | -0.38 | 1.51 | 1.25 | enough cells to score | inactive |
| Slc39a8 | 1 | – | 1.77 | 1.14 | fewer than 50 cells per well; well left out of scoring | inactive |
| Vmn1r29 | 1 | 0.28 | 1.45 | 1.23 | enough cells to score | inactive |
| Or12k7 | 1 | 0.5 | 1.74 | 1.45 | enough cells to score | inactive |
| Tmem179b | 1 | 0.18 | 1.38 | 1.63 | enough cells to score | inactive |
| Prr3 | 1 | -0.4 | 1.35 | 1.15 | enough cells to score | inactive |
| Gpr171 | 1 | 0.71 | 1.62 | 1.67 | enough cells to score | inactive |
| Mrpl20 | 1 | 0.94 | 1.94 | 1.73 | enough cells to score | inactive |
| Ap1s2 | 1 | -0.8 | 1.47 | 1.58 | enough cells to score | inactive |
| Ctsj | 1 | 0.18 | 1.59 | 1.83 | enough cells to score | inactive |
| Tbc1d1 | 1 | – | 1.25 | 1.12 | fewer than 50 cells per well; well left out of scoring | inactive |
| Slc35e4 | 1 | – | 1.42 | 1.63 | fewer than 50 cells per well; well left out of scoring | inactive |

Entries listed above with an active call:
| Target gene | reagent | p65 translocation robust z-score | nuclear/cytoplasmic p65 ratio, rep 1 | nuclear/cytoplasmic p65 ratio, rep 2 | low cell count flag | outcome |
| --- | --- | --- | --- | --- | --- | --- |
| Mrtfb | 1 | -2.74 | 1.27 | 1.11 | enough cells to score | active |

The list goes on:
| Target gene | reagent | p65 translocation robust z-score | nuclear/cytoplasmic p65 ratio, rep 1 | nuclear/cytoplasmic p65 ratio, rep 2 | low cell count flag | outcome |
| --- | --- | --- | --- | --- | --- | --- |
| Lxn | 1 | 0.22 | 1.67 | 1.65 | enough cells to score | inactive |
| Pex5l | 1 | -1.27 | 1.27 | 1.2 | enough cells to score | inactive |
| Gabre | 1 | -0.33 | 1.37 | 1.35 | enough cells to score | inactive |
| Slc38a9 | 1 | 1.41 | 1.54 | 1.33 | enough cells to score | inactive |
| Slc38a9 | 2 | 0.89 | 1.57 | 1.65 | enough cells to score | inactive |
| Nabp1 | 1 | – | 1.27 | 1.19 | fewer than 50 cells per well; well left out of scoring | inactive |
| Slc68a1 | 1 | -0.14 | 1.26 | 1.28 | enough cells to score | inactive |
| Adamtsl2 | 1 | 1.92 | – | 1.91 | enough cells to score | inactive |
| Metap1 | 1 | -0.59 | 1.31 | 1.32 | enough cells to score | inactive |
| Rab20 | 1 | -0.07 | 1.55 | 1.46 | enough cells to score | inactive |
| Usp29 | 1 | 0.95 | 2.09 | 1.33 | enough cells to score | inactive |
| Slc25a41 | 1 | – | 1.17 | 1.21 | fewer than 50 cells per well; well left out of scoring | inactive |
| Trappc8 | 1 | -0.33 | 1.49 | 1.77 | enough cells to score | inactive |
| Arhgap26 | 1 | 0.74 | 1.74 | 1.71 | enough cells to score | inactive |
| Padi3 | 1 | – | 1.56 | 1.33 | fewer than 50 cells per well; well left out of scoring | inactive |
| Riok2 | 1 | 0.25 | 1.5 | 1.6 | enough cells to score | inactive |
| Speer3 | 1 | -0.27 | 1.35 | 1.23 | enough cells to score | inactive |
| 2310002L09Rik | 1 | – | 1.23 | 1.16 | fewer than 50 cells per well; well left out of scoring | inactive |
| Fzd1 | 1 | 1.18 | 1.68 | 1.74 | enough cells to score | inactive |
| Hsd17b3 | 1 | 0.42 | 1.37 | 1.44 | enough cells to score | inactive |
| Scand1 | 1 | -0.35 | 1.46 | 1.22 | enough cells to score | inactive |
| Gpr155 | 1 | -0.03 | 1.47 | 1.61 | enough cells to score | inactive |
| Ido2 | 1 | 1.09 | 1.6 | 1.66 | enough cells to score | inactive |
| Lrrc8a | 1 | -1.7 | 1.49 | 1.26 | enough cells to score | active |
| Rnf126 | 1 | -2.13 | 1.09 | 1.01 | enough cells to score | active |
| Ifit3 | 1 | -0.42 | 1.32 | 1.34 | enough cells to score | inactive |
| C3ar1 | 1 | -1.85 | 1.29 | 1.27 | enough cells to score | active |
| Ackr3 | 1 | 0.46 | 1.48 | 1.44 | enough cells to score | inactive |
| Lce1g | 1 | -1.05 | 1.35 | 1.2 | enough cells to score | inactive |
| Abi3 | 1 | -1.17 | 1.36 | 1.57 | enough cells to score | inactive |
| Tnnc1 | 1 | 1.15 | 1.62 | 1.74 | enough cells to score | inactive |
| Pla2g2d | 1 | -0.43 | 1.41 | 1.38 | enough cells to score | inactive |
| Pkib | 1 | -0.1 | 1.54 | 1.36 | enough cells to score | inactive |
| Pcnx4 | 1 | 1.65 | 1.57 | 1.48 | enough cells to score | inactive |
| Oosp1 | 1 | 2.11 | 1.93 | 1.31 | enough cells to score | inactive |
| Aurka | 1 | -0.63 | 1.79 | 1.3 | enough cells to score | inactive |
| Cel | 1 | 0.45 | 1.55 | 1.41 | enough cells to score | inactive |
| Dqx1 | 1 | 1.42 | 1.62 | 1.57 | enough cells to score | inactive |
